The values that follow come from PubChem BioAssay AID330 (DTP/NCI, 2004).

The list is a part of this screen's results and no random one: it gathers tests that were run many times, whatever their T/C, doses with no T/C, and many T/C values between a quarter and a half above the control. Further doses and runs are listed elsewhere. T/C gives the treated animals as a percentage of the vehicle group. Some doses have a count of surviving animals in place of a T/C: the source holds a T/C of zero for them, seemingly a mark for toxic or unscored doses. Some doses without a T/C left all or most animals alive at the check, yet need not have been tolerated: the source hardly ever lists a survival T/C far under the control, and the zero likely stands for such cases as well. Survivors were counted at the toxicity check, usually on the fifth day, unless a day is given; later deaths do not show. Schedule codes are those of the source, read here as Q, the interval in days (D) or hours (H), X, the number of doses. Some doses were run more than once; the values are given in rising order. Some molecules as drawn cover several salts, stereoisomers or complexes of the source; a dose is that of the sample tested. For survival time, the PubChem record calls one and a half times the control and up active, and a quarter to a half above the control has no call in these data; cut-offs in other NCI protocols can differ.

The assay has as its system P388 leukemia ip, CD2F1 mice, survival T/C. The assay can be described thus: NCI In Vivo Anticancer Drug Screen. Data for tumor model P388 Leukemia (intraperitoneal) in CD2F1 (CDF1) mice. Particulars: T/C endpoint: median survival time, higher T/C = longer survival.
Setting [1] is: dose: 200.0 mg/kg/injection, schedule: Q04DX003 (ip), vehicle: saline with Tween-80.
[2] abbreviates: dose: 200.0 mg/kg/injection, schedule: Q01DX005 (ip), vehicle: Klucel (hydroxypropylcellulose) (HPC).
Where [3] appears, read: dose: 200.0 mg/kg/injection, schedule: Q01DX005 (ip), vehicle: saline.
Where [4] appears, read: dose: 240.0 mg/kg/injection, schedule: Q01DX005 (ip), vehicle: saline with Tween-80.

As for `[Cu+2].[O-][Cl+3]([O-])([O-])O.[O-][n+]1c2ccccc2nc2ccccc21`, the survivor count by setting is: (dose: 100.0 mg/kg/injection, schedule: Q04DX003 (ip), vehicle: saline with Tween-80) 3 of 6; under setting [1], 0 of 6; (dose: 400.0 mg/kg/injection, schedule: Q04DX003 (ip), vehicle: saline with Tween-80) 0 of 6.

On to `O=C1C=C(Cl)C(O)C1(Cl)Cl` (stereo unspecified), for which the survivor count was 0 of 6 (dose: 25.0 mg/kg/injection, schedule: Q01DX009 (ip), vehicle: saline); 0 of 6 (dose: 50.0 mg/kg/injection, schedule: Q01DX009 (ip), vehicle: saline); 0 of 6 (dose: 100.0 mg/kg/injection, schedule: Q01DX009 (ip), vehicle: saline); 0 of 6 (dose: 200.0 mg/kg/injection, schedule: Q01DX009 (ip), vehicle: saline).

With `Cn1c(-c2ccc(Cl)cc2)cc2cc(CN3C(=O)c4ccccc4C3=O)ccc21`, the survivor count (dose: 200.0 mg/kg/injection, schedule: Q04DX003 (ip), vehicle: Klucel (hydroxypropylcellulose) (HPC)) is reported as 6 of 6.

As to `Cn1nnc(-c2ccc(C(=O)O)cc2)n1`, the survivor count under setting [2] is listed as 5 of 5.

For the compound `COC(=O)/C=C/N(Cc1ccccc1)/N=N/N(/C=C/C(=O)OC)Cc1ccccc1`, the survivor count is given as 6 of 6 (dose: 50.0 mg/kg/injection, schedule: Q01DX005 (ip), vehicle: saline with Tween-80) and 6 of 6 (dose: 100.0 mg/kg/injection, schedule: Q01DX005 (ip), vehicle: saline with Tween-80).

`O=C(C1CC2CCN1CC2)N1CCN(C(=O)C2CC3CCN2CC3)CC1` (stereo unspecified): the survivor count is recorded as 6 of 6 (dose: 6.25 mg/kg/injection, schedule: Q01DX005 (ip), vehicle: saline); 0 of 6 (dose: 12.5 mg/kg/injection, schedule: Q01DX005 (ip), vehicle: saline); 0 of 6 (dose: 25.0 mg/kg/injection, schedule: Q01DX005 (ip), vehicle: saline); 0 of 6 (dose: 50.0 mg/kg/injection, schedule: Q01DX005 (ip), vehicle: saline); 0 of 6 (dose: 100.0 mg/kg/injection, schedule: Q01DX005 (ip), vehicle: saline); 0 of 6 under setting [3]. Further, the survivor count under setting [4] is recorded as 0 of 6.

`COc1ccc(/C=C/C(=N/NC(=O)c2ccccc2)C(C)CN(C)C)cc1` (stereo unspecified): the survivor count (dose: 240.0 mg/kg/injection, schedule: Q01DX005 (ip), vehicle: Klucel (hydroxypropylcellulose) (HPC)) is listed as 0 of 6.

For the compound `CC1(C)OC(C(F)(F)F)(C(F)(F)F)c2cc(C(C)(C)C)cc(C(O)(C(F)(F)F)C(F)(F)F)c2S1`, under setting [4], the survivor count is on record as 3 of 6.

For the compound `CCNC(=O)OCc1c(-c2ccccc2)nc2n1CCS2`, the survivor count (dose: 25.0 mg/kg/injection, schedule: Q01DX001 (ip), vehicle: Klucel (hydroxypropylcellulose) (HPC)) is on record as 6 of 6; the survivor count (dose: 100.0 mg/kg/injection, schedule: Q01DX001 (ip), vehicle: Klucel (hydroxypropylcellulose) (HPC)) was 0 of 6 and 5 of 6; the survivor count (dose: 200.0 mg/kg/injection, schedule: Q01DX001 (ip), vehicle: Klucel (hydroxypropylcellulose) (HPC)) was 0 of 6; the survivor count (dose: 400.0 mg/kg/injection, schedule: Q01DX001 (ip), vehicle: Klucel (hydroxypropylcellulose) (HPC)) is on record as 0 of 6.

On to `O=C(O)/C(Cl)=C(/Cl)C(=O)C(Cl)(Cl)Cl`, for which the T/C is 130 % of control (dose: 6.25 mg/kg/injection, schedule: Q01DX009 (ip), vehicle: distilled water + Tween-80); 135 and 139 % of control (dose: 12.5 mg/kg/injection, schedule: Q01DX009 (ip), vehicle: distilled water + Tween-80); 141 % of control (dose: 25.0 mg/kg/injection, schedule: Q01DX009 (ip), vehicle: distilled water + Tween-80). Further, the survivor count is, setting by setting: (dose: 50.0 mg/kg/injection, schedule: Q01DX009 (ip), vehicle: distilled water + Tween-80) 3 of 6; (dose: 100.0 mg/kg/injection, schedule: Q01DX009 (ip), vehicle: distilled water + Tween-80) 3 of 6; (dose: 200.0 mg/kg/injection, schedule: Q01DX009 (ip), vehicle: distilled water + Tween-80) 1 of 6.

For `CN(C)CCN(C)CCC(=O)/C=C/c1ccccc1`, the survivor count reads like this: (dose: 100.0 mg/kg/injection, schedule: Q01DX001 (ip), vehicle: saline) 0 of 6; (dose: 200.0 mg/kg/injection, schedule: Q01DX001 (ip), vehicle: saline) 0 of 6; (dose: 400.0 mg/kg/injection, schedule: Q01DX001 (ip), vehicle: saline) 0 of 6.

As to `C=C(C)C(=O)O[C@@H]1C/C(C)=C\[C@H](OC(C)=O)C[C@](C)(O)/C=C2/OC(=O)C(COC(C)=O)=C21`, the survivor count by setting is: (dose: 22.0 mg/kg/injection, schedule: Q01DX005 (ip), vehicle: Klucel (hydroxypropylcellulose) (HPC)) 1 of 5; (dose: 44.0 mg/kg/injection, schedule: Q01DX005 (ip), vehicle: Klucel (hydroxypropylcellulose) (HPC)) 0 of 5 and 6 of 6; (dose: 88.0 mg/kg/injection, schedule: Q01DX005 (ip), vehicle: Klucel (hydroxypropylcellulose) (HPC)) 1 of 6; (dose: 176.0 mg/kg/injection, schedule: Q01DX005 (ip), vehicle: Klucel (hydroxypropylcellulose) (HPC)) 0 of 6.

On to `COc1cc(NC(C)CN(CC(C)C)C(C)C)c2ncccc2c1` (stereo unspecified), for which, under setting [3], the survivor count is listed as 1 of 5.

With `Cc1c2ccccc2cc2c1ccc1ccccc12`, the T/C is 141 % of control (dose: 17.5 mg/kg/injection, schedule: Q01DX009 (ip), vehicle: saline with Tween-80); 148 % of control (dose: 35.0 mg/kg/injection, schedule: Q01DX009 (ip), vehicle: saline with Tween-80); 132 % of control (dose: 70.0 mg/kg/injection, schedule: Q01DX009 (ip), vehicle: saline with Tween-80).

For the compound `S=C=NP1(N=C=S)=NP(N=C=S)(N=C=S)=NP(N=C=S)(N=C=S)=N1` (stereo unspecified), the survivor count under setting [2] was 5 of 5.

Take `Nc1nc(N)c(Cl)c(Nc2cccc(Cl)c2)n1`: the survivor count (dose: 12.5 mg/kg/injection, schedule: Q01DX001 (ip), vehicle: saline with Tween-80) is 0 of 6 and the survivor count (dose: 25.0 mg/kg/injection, schedule: Q01DX001 (ip), vehicle: saline with Tween-80) is 0 of 6.

Take `O=c1[nH]cc(COCC(F)(F)F)c(=O)[nH]1`: the survivor count under setting [1] was 2 of 3.

As for `C#CCC(N)C(=O)O` (stereo unspecified), under setting [3], the survivor count is on record as 3 of 5.

Consider `C1CC2OC2CC1C1CO1` (stereo unspecified), for which the survivor count (dose: 400.0 mg/kg/injection, schedule: Q01DX009 (ip), vehicle: saline with Tween-80) is on record as 3 of 6.

`CCCCN(CCCC)CC(O)c1c(OC)c2cc(Cl)ccc2c2ccc(Cl)cc12` (stereo unspecified): the survivor count (dose: 12.5 mg/kg/injection, schedule: Q01DX009 (ip), vehicle: saline with Tween-80) was 6 of 6.

Turning to `CCN(CC)CCCC(C)Nc1cc(/C=C/c2ccc(Cl)cc2)nc2cc(N(C)C)ccc12` (stereo unspecified), the survivor count is, setting by setting: (dose: 25.0 mg/kg/injection, schedule: Q01DX009 (ip), vehicle: Klucel (hydroxypropylcellulose) (HPC)) 1 of 6; (dose: 50.0 mg/kg/injection, schedule: Q01DX009 (ip), vehicle: Klucel (hydroxypropylcellulose) (HPC)) 0 of 6; (dose: 100.0 mg/kg/injection, schedule: Q01DX009 (ip), vehicle: Klucel (hydroxypropylcellulose) (HPC)) 0 of 6; (dose: 200.0 mg/kg/injection, schedule: Q01DX009 (ip), vehicle: Klucel (hydroxypropylcellulose) (HPC)) 0 of 6.

`CCOC(=S)SCC(=O)C1(O)Cc2c(O)c3c(c(O)c2C(OC2CC(N)C(O)C(C)O2)C1)C(=O)c1c(OC)cccc1C3=O` (stereo unspecified): the T/C (dose: 6.25 mg/kg/injection, schedule: Q01DX009 (ip), vehicle: other) was 131 % of control. For the same compound, the survivor count is on record as 4 of 6 (dose: 12.5 mg/kg/injection, schedule: Q01DX009 (ip), vehicle: other); 0 of 6 (dose: 25.0 mg/kg/injection, schedule: Q01DX009 (ip), vehicle: other); 1 of 3 (dose: 300.0 mg/kg/injection, schedule: Q04DX003 (ip), vehicle: other).
